The list shows only some results of the screen, not a fair sample: it is rich in T/C values a quarter to a half above the control, in often repeated tests (any T/C) and in doses without a T/C. Further doses and runs are listed elsewhere. T/C: endpoint of the treated group in % of that of the vehicle group. Some entries give survivors of the animals treated and no T/C: the source holds a T/C of zero for them, seemingly a mark for toxic or unscored doses. Some doses without a T/C left all or most animals alive at the check, yet need not have been tolerated: the source hardly ever lists a survival T/C far under the control, and the zero likely stands for such cases as well. Survivors were counted at the toxicity check, usually on the fifth day, unless a day is given; later deaths do not show. Schedules are NCI's codes, taken here to give the interval after Q, in days (D) or hours (H), and the number of doses after X. Marks such as (2×) say how often a value occurs here. Where survival is the endpoint, this PubChem deposit counts one and a half times the control or more as active, and values a quarter to a half above the control carry no call in these data; other NCI protocols may use other cut-offs. Some molecules as drawn cover several salts, stereoisomers or complexes of the source; a dose is that of the sample tested. Some T/C values carry the count of animals alive at the toxicity check (mostly the fifth day); where none is given, no animal had died by that day. Some doses were run more than once; the values are given in rising order.

Drawing on PubChem BioAssay AID330 (DTP/NCI, 2004), this text covers survivor count and T/C for 34 compounds.

The test system of the test is P388 leukemia ip, CD2F1 mice, survival T/C. The experiment in a line: NCI In Vivo Anticancer Drug Screen. Data for tumor model P388 Leukemia (intraperitoneal) in CD2F1 (CDF1) mice. The following applies: T/C endpoint: median survival time, higher T/C = longer survival.
[1] abbreviates: dose: 100.0 mg/kg/injection, schedule: Q01DX005 (ip), vehicle: Klucel (hydroxypropylcellulose) (HPC).
The mark [2] stands for this setting: dose: 200.0 mg/kg/injection, schedule: Q01DX005 (ip), vehicle: Klucel (hydroxypropylcellulose) (HPC).
Setting [3] is: dose: 200.0 mg/kg/injection, schedule: Q01DX009 (ip), vehicle: saline.
Setting [4] is: dose: 50.0 mg/kg/injection, schedule: Q01DX009 (ip), vehicle: saline with Tween-80.
The mark [5] stands for this setting: dose: 200.0 mg/kg/injection, schedule: Q01DX005 (ip), vehicle: saline.
[6] abbreviates: dose: 400.0 mg/kg/injection, schedule: Q01DX001 (ip), vehicle: Klucel (hydroxypropylcellulose) (HPC).
The mark [7] stands for this setting: dose: 60.0 mg/kg/injection, schedule: Q01DX005 (ip), vehicle: saline with Tween-80.
[8] abbreviates: dose: 240.0 mg/kg/injection, schedule: Q01DX005 (ip), vehicle: saline with Tween-80.
Where [9] appears, read: dose: 200.0 mg/kg/injection, schedule: Q01DX009 (ip), vehicle: water.
The mark [10] stands for this setting: dose: 50.0 mg/kg/injection, schedule: Q01DX005 (ip), vehicle: saline with Tween-80.

On to `CCN=P1(N(C(C)C)C(C)C)N(CC)N=NN1C(C)(C)C` (stereo unspecified), for which the survivor count is given as 0 of 6 (dose: 25.0 mg/kg/injection, schedule: Q01DX005 (ip), vehicle: Klucel (hydroxypropylcellulose) (HPC)); 4 of 6 (dose: 50.0 mg/kg/injection, schedule: Q01DX005 (ip), vehicle: Klucel (hydroxypropylcellulose) (HPC)); 0 of 6 under setting [1]; 0 of 6 under setting [2].
As for `Cc1nnc2sc3c(Cl)c4nn5c(C)nnc5sc4c(Cl)c3nn12`, the survivor count reads like this: (dose: 6.25 mg/kg/injection, schedule: Q01DX009 (ip), vehicle: saline with Tween-80) 6 of 6; (dose: 12.5 mg/kg/injection, schedule: Q01DX009 (ip), vehicle: saline with Tween-80) 6 of 6; (dose: 25.0 mg/kg/injection, schedule: Q01DX009 (ip), vehicle: saline with Tween-80) 6 of 6.
Regarding `CCNCc1c(C)[nH]c2ccc(N(C)C)cc2c1=O`, under setting [3], the survivor count is 6 of 6.
As for `CCOCCN1CCN(CCCN2c3ccccc3Sc3ccc(C(F)(F)F)cc32)CC1`, the T/C (dose: 25.0 mg/kg/injection, schedule: Q04DX003 (ip), vehicle: saline) is 140 % of control.
As for `Oc1c(-c2ccccc2)cc(-c2ccc(Br)cc2)c(-c2ccc(Br)cc2)c1-c1ccccc1`, the survivor count under setting [4] was 6 of 6.
As to `COCC(O)C(NC(=O)CCl)C(=O)O` (stereo unspecified), the survivor count under setting [3] is listed as 5 of 6.
Consider `[N-]=[N+]=NCC(=O)N1c2ccccc2Sc2ccccc21`, for which the survivor count (dose: 400.0 mg/kg/injection, schedule: Q01DX009 (ip), vehicle: other) is on record as 4 of 6.
Regarding `CC1CC(C)CN(C)C1` (stereo unspecified), the survivor count under setting [5] is recorded as 0 of 6.
Consider `Nc1nc(F)nc2c1nnn2C1OC(CO)C(O)C1O` (stereo unspecified), for which the survivor count under setting [5] is given as 2 of 6.
Regarding `O=C1c2ccccc2C(=O)N1CCCC[P+](c1ccccc1)(c1ccccc1)c1ccccc1`, under “dose: 12.0 mg/kg/injection, schedule: Q01DX009 (ip), vehicle: other”, the survivor count was 4 of 6.
Consider `Nc1ccc(N=N/C(=N\Nc2ccccc2[As](=O)(O)O)C(=O)Nc2ccccc2)c(Cl)c1`, for which, for the setting “dose: 12.5 mg/kg/injection, schedule: Q01DX005 (ip), vehicle: Klucel (hydroxypropylcellulose) (HPC)”, the T/C was 125 % of control. Moreover, the survivor count is, setting by setting: under setting [1], 1 of 6; under setting [2], 0 of 6.
For the compound `NNC(=O)c1ccc(NC(=O)CSc2nc3ccccc3s2)cc1`, the survivor count is, setting by setting: (dose: 50.0 mg/kg/injection, schedule: Q01DX009 (ip), vehicle: Klucel (hydroxypropylcellulose) (HPC)) 3 of 6; (dose: 100.0 mg/kg/injection, schedule: Q01DX009 (ip), vehicle: Klucel (hydroxypropylcellulose) (HPC)) 0 of 6; (dose: 200.0 mg/kg/injection, schedule: Q01DX009 (ip), vehicle: Klucel (hydroxypropylcellulose) (HPC)) 0 of 6.
As to `OC(c1cc2cc(Br)ccc2c2cc(Br)ccc12)C1CCCCN1` (stereo unspecified), the survivor count under setting [4] is 6 of 6; the survivor count (dose: 100.0 mg/kg/injection, schedule: Q01DX009 (ip), vehicle: saline with Tween-80) was 0 of 6; the survivor count (dose: 200.0 mg/kg/injection, schedule: Q01DX009 (ip), vehicle: saline with Tween-80) is 0 of 6.
As to `CSc1nc2cc(Cl)ccc2c2c1C=NCCN2`, the survivor count by setting is: (dose: 100.0 mg/kg/injection, schedule: Q04DX003 (ip), vehicle: suspension in saline) 1 of 6; (dose: 200.0 mg/kg/injection, schedule: Q04DX003 (ip), vehicle: suspension in saline) 3 of 6.
`OC1(c2ccccc2)C(c2ccccc2)=C(c2ccccc2)C(c2ccc(CCCCCCCCc3ccc(C4=C(c5ccccc5)C(O)(c5ccccc5)C(c5ccccc5)=C4c4ccccc4)cc3)cc2)=C1c1ccccc1` (stereo unspecified): the survivor count under setting [6] is reported as 6 of 6.
Turning to `O=c1c2ccccc2nc(/C=N/NC(=S)Nc2ccc(Cl)cc2)n1-c1ccc(Br)cc1`, the survivor count (dose: 400.0 mg/kg/injection, schedule: Q04DX002 (ip), vehicle: saline with Tween-80) is listed as 0 of 6.
With `O=C(OC1CCc2ccccc2C1)c1ccc(N=Nc2ccccc2)cc1` (stereo unspecified), the survivor count runs as follows: under setting [7], 6 of 6; under setting [8], 6 of 6.
Turning to `O=C1NN=C(c2ccc(Br)cc2)CS1`, the survivor count (dose: 400.0 mg/kg/injection, schedule: Q01DX009 (ip), vehicle: saline with Tween-80) is 3 of 6.
For `CCC(COC(=O)c1ccc(N(CC)CC)cc1)NC1CCCCC1` (stereo unspecified), the survivor count under setting [8] was 0 of 6.
As to `CS/C(=C\c1ccc(C(=O)c2ccc(C)cc2)n1C)S(C)=O` (stereo unspecified), the survivor count (dose: 120.0 mg/kg/injection, schedule: Q01DX005 (ip), vehicle: Klucel (hydroxypropylcellulose) (HPC)) is reported as 6 of 6.
Take `CN(C)P(=O)(N=S=NC(C)(C)C)N(C)C`: the survivor count under setting [3] is 0 of 6.
For `CN1CCC(COC(=O)CC(C)(C)C)C1` (stereo unspecified), the survivor count under setting [9] is given as 0 of 6.
As to `CNc1cccc(NC)c1`, the survivor count is, setting by setting: (dose: 50.0 mg/kg/injection, schedule: Q01DX009 (ip), vehicle: water) 1 of 6; (dose: 100.0 mg/kg/injection, schedule: Q01DX009 (ip), vehicle: water) 0 of 6; under setting [9], 0 of 6; (dose: 400.0 mg/kg/injection, schedule: Q01DX009 (ip), vehicle: water) 0 of 6.
`CCCCCCOC(=O)C1=C(NC)CCC1`: the survivor count under setting [3] is on record as 4 of 6.
With `C/C=C/C=C1\C=Cc2c(C(=O)OC)coc(=O)c21`, for the setting “dose: 156.0 mg/kg/injection, schedule: Q01DX005 (ip), vehicle: Klucel (hydroxypropylcellulose) (HPC)”, the survivor count is 4 of 6.
As to `CCOC(=O)/C(C#N)=C/Nc1ccc(Cl)nc1Cl`, the survivor count under setting [8] is reported as 6 of 6.
On to `Cc1c2cnccc2c(C)c2c1c1ccccc1n2CCCCCCCCCCn1c2ccccc2c2c(C)c3cnccc3c(C)c21`, for which, under “dose: 200.0 mg/kg/injection, schedule: Q04DX002 (ip), vehicle: saline with Tween-80”, the survivor count is 6 of 6.
`CCCCOP(=O)(O)OCCCC`: the survivor count under setting [6] is 6 of 6.
`CCN=C1C=CC(=C(c2ccc(N(CC)CC)cc2)c2ccc(N(CC)CC)cc2)c2ccccc21`: the survivor count is 0 of 6 (dose: 25.0 mg/kg/injection, schedule: Q01DX005 (ip), vehicle: saline with Tween-80); 0 of 6 under setting [10]; 0 of 6 (2×) (dose: 100.0 mg/kg/injection, schedule: Q01DX005 (ip), vehicle: saline with Tween-80); 0 of 6 (dose: 200.0 mg/kg/injection, schedule: Q01DX005 (ip), vehicle: saline with Tween-80). In addition, the T/C under setting [10] was 121 % of control.
Regarding `COc1cccc2c1C(=O)c1c(O)c3c(c(O)c1C2=O)CC(O)(C(C)=O)CC3OC1CC(N)C(O)C(C)O1` (stereo unspecified) (tested in a mixture with another compound), the T/C is 126 % of control (dose: 9.38 mg/kg/injection, schedule: Q04DX003 (ip), vehicle: water); 130 and 133 % of control (dose: 18.75 mg/kg/injection, schedule: Q04DX003 (ip), vehicle: water); 126, 126 [5 of 6 alive on day 9], 129, 145 % of control (dose: 37.5 mg/kg/injection, schedule: Q04DX003 (ip), vehicle: water); 131 % of control (dose: 75.0 mg/kg/injection, schedule: Q04DX003 (ip), vehicle: water).
On to `CC(N=c1cc2n(-c3ccc(Cl)cc3)c3ccccc3nc-2cc1Nc1ccc(Cl)cc1)c1ccccc1` (stereo unspecified), for which the survivor count by setting is: (dose: 15.0 mg/kg/injection, schedule: Q01DX005 (ip), vehicle: saline with Tween-80) 6 of 6; (dose: 30.0 mg/kg/injection, schedule: Q01DX005 (ip), vehicle: saline with Tween-80) 6 of 6; under setting [7], 6 of 6; (dose: 120.0 mg/kg/injection, schedule: Q01DX005 (ip), vehicle: saline with Tween-80) 6 of 6; under setting [8], 6 of 6.
Turning to `C[Si]c1ccccc1CN(C)C`, under setting [5], the survivor count is recorded as 1 of 6.
Take `C=CCc1cc(OC)c(OCC=O)c(OC)c1`: under “dose: 400.0 mg/kg/injection, schedule: Q04DX002 (ip), vehicle: Klucel (hydroxypropylcellulose) (HPC)”, the survivor count is 0 of 6.
Regarding `CC1OC(C)C(O)C2=C1C(=O)c1ccccc1C2=O` (stereo unspecified), under setting [8], the survivor count is listed as 0 of 6.
